Data taken from the supplement of paper PMC10689618.
This is one part of the list. Single values are uncertain, as repeats are few or missing.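 Labelled rat cortical synaptosomes were engulfed by primary human fetal astrocytes. Engulfment equaled a red/green ratio, corrected for calcein live-cell signal and normalized to the plate median. Compounds were toxic when calcein dropped over 30%, and reduced phagocytosis when below 70% of the median above 5 µM.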

Columns and labels:
[1] = tested on: Human fetal astrocytes; assay: loss of total cells relative to no-compound high-control median (toxicity); higher = more toxic (fewer cells); conditions: 24 h
[2] = tested on: Human fetal astrocytes; assay: synaptosome phagocytosis (pHrodo/calcein intensity ratio) relative to plate median of data wells; higher = more phagocytosis; conditions: 24 h

Row | Structure (SMILES) | loss of total cells ([1]; 1.39 µM) | loss of total cells ([1]; 2.78 µM) | loss of total cells ([1]; 5.56 µM) | loss of total cells ([1]; 11.11 µM) | loss of total cells ([1]; 22.22 µM) | synaptosome phagocytosis ([2]; 1.39 µM) | synaptosome phagocytosis ([2]; 2.78 µM) | synaptosome phagocytosis ([2]; 5.56 µM) | synaptosome phagocytosis ([2]; 11.11 µM) | synaptosome phagocytosis ([2]; 22.22 µM)
1 | CC1(C)O[C@@H]2C[C@H]3[C@@H]4CCC5=CC(=O)CC[C@]5(C)[C@@]4(F)[C@@H](O)C[C@]3(C)[C@]2(C(=O)CCl)O1 | -46.8% | 24.6% | 14.3% | 47.5% | 10.9% | 74.4% | 99.9% | 64.7% | 99.7% | 75%
2 | CC1(C)S[C@@H]2[C@H](NC(=O)[C@H](NC(=O)N3CCNC3=O)c3ccccc3)C(=O)N2[C@H]1C(=O)O | -31.5% | -1.5% | 6.9% | -3.9% | 9.6% | 119% | 87% | 102% | 107% | 98.3%
3 | O=C1c2ccccc2C(=O)C1c1ccc(Br)cc1 | 6.5% | -45.2% | 6.8% | 42.3% | -7.8% | 116% | 105% | 123% | 149% | 99.3%
4 | CCOC(=O)[C@@](C)(N)Cc1ccc(O)c(O)c1 | -19.9% | -4% | -11.7% | 6.3% | 24.4% | 99.4% | 109% | 81% | 53.6% | 31.3%
5 | Cc1nc2sccn2c(=O)c1CCN1CCC(=C(c2ccc(F)cc2)c2ccc(F)cc2)CC1 [Ritanserin] | -39.5% | -50% | -9.3% | -8.9% | 12.8% | 94.8% | 67.9% | 89.3% | 69.3% | 57.1%
6 | CC(=O)OCC(CCn1cnc2cnc(N)nc21)COC(C)=O | -34.7% | -43.7% | 2.5% | -12.1% | -12.1% | 113% | 98.5% | 130% | 85.7% | 113%
7 | NC(=O)NC1NC(=O)NC1=O (stereo not given) | 12.2% | -5.1% | -19.5% | 4.9% | 15.5% | 115% | 103% | 94.4% | 123% | 104%
8 | COc1ccc2cc1Oc1ccc(cc1)C[C@H]1c3cc(c(OC)cc3CCN1C)Oc1c(OC)c(OC)cc3c1[C@H](C2)N(C)CC3 | 4.9% | -11.9% | 11% | 31.1% | 17.8% | 130% | 106% | 124% | 107% | 138%
9 | CC(C)n1c(/C=C/C(O)CC(O)CC(=O)O)c(-c2ccc(F)cc2)c2ccccc21 (stereo not given) | -21.8% | -45.2% | 7.5% | 4.3% | 0.9% | 115% | 89.8% | 87.5% | 72.8% | 63.3%
10 | N=C(N)c1ccc(OCCCCCOc2ccc(C(=N)N)cc2)cc1 | 28.5% | 24.9% | 15.9% | 1.3% | 20.5% | 141% | 121% | 78.9% | 75.3% | 98.5%
11 | CCOc1cc(CC(=O)N[C@@H](CC(C)C)c2ccccc2N2CCCCC2)ccc1C(=O)O | -19.1% | -10.7% | -13.5% | -7.8% | 5.1% | 107% | 110% | 105% | 132% | 112%
12 | Clc1ccc(CO/N=C(\Cn2ccnc2)c2ccc(Cl)cc2Cl)c(Cl)c1 | -16.9% | 27% | 5% | 46.2% | 81.3% | 108% | 155% | 81% | 21.8% | 0%
13 | Nc1ccc(C(=O)O)cc1 | -4.1% | 2.1% | 6.9% | 0.8% | -13.6% | 89.4% | 104% | 84.9% | 83.6% | 83.5%
14 | O=c1[nH]c(=O)n([C@H]2C[C@H](O)[C@@H](CO)O2)cc1C(F)(F)F | 12.1% | -29.4% | 18% | 31.1% | 2.8% | 141% | 97.8% | 133% | 114% | 119%
15 | COC(=O)Nc1nc2cc(Sc3ccccc3)ccc2[nH]1 | -18.3% | 5.2% | 10.5% | -1.6% | 4.5% | 117% | 119% | 96.7% | 105% | 110%
16 | COc1ccc(C(=O)c2ccccc2)c(O)c1O | -15.6% | 6.6% | 35.9% | 16.8% | 40.4% | 81.1% | 73.7% | 143% | 98.2% | 125%
17 | OC1(c2ccc(Cl)c(C(F)(F)F)c2)CCN(CCCC(c2ccc(F)cc2)c2ccc(F)cc2)CC1 | 2.5% | 8.8% | 68.2% | 82% | 104% | 69.6% | 54.9% | 21.2% | 36.3% | 0%
18 | Cc1cn([C@H]2C[C@H](N=[N+]=[N-])[C@@H](CO)O2)c(=O)[nH]c1=O [AZT Zidovudine Azidothymidine 3'-Azido-3'-deoxythymidine] | -0.8% | -22.2% | 0% | 44.3% | -5.9% | 129% | 103% | 130% | 169% | 124%
19 | C#C[C@]1(OC(C)=O)CC[C@H]2[C@@H]3CCC4=CC(=NO)CC[C@@H]4[C@H]3CC[C@@]21CC (mixture of isomers) | -29% | -31% | 8.7% | 6.9% | 6.5% | 121% | 95% | 118% | 78.9% | 99.4%

An excerpt from above with just loss of total cells ([1]; 11.11 µM), loss of total cells ([1]; 1.39 µM) and synaptosome phagocytosis ([2]; 11.11 µM):
Row	Structure (SMILES)	loss of total cells ([1]; 11.11 µM)	loss of total cells ([1]; 1.39 µM)	synaptosome phagocytosis ([2]; 11.11 µM)
8	COc1ccc2cc1Oc1ccc(cc1)C[C@H]1c3cc(c(OC)cc3CCN1C)Oc1c(OC)c(OC)cc3c1[C@H](C2)N(C)CC3	31.1%	4.9%	107%
19	C#C[C@]1(OC(C)=O)CC[C@H]2[C@@H]3CCC4=CC(=NO)CC[C@@H]4[C@H]3CC[C@@]21CC (mixture of isomers)	6.9%	-29%	78.9%
